{
  "source": "PubChem BioAssay AID504444",
  "about": "(National Center for Advancing Translational Sciences (NCATS), 2011)",
  "note": "Hit rate of the full screen: of about 360,000 compounds, about 7,500 (2.1%) were called active. Inconclusive means that the source gave no clear call. Such entries were picked first, then a sample of the others. The call rests on the fitted dose curve; in most records, active means well fitted inhibition curve with a large enough effect; inconclusive means small, poorly fitted or top-dose-only effect, or effect the other way; inactive means flat fitted curve, though single readings scatter. Potencies of inconclusive entries are doubtful fits and often do not repeat. Potency means the concentration at half of the fitted maximal effect.",
  "data": [
    {"experiment": "Nrf2 qHTS screen for inhibitors; further: nearly all actives have a fitted effect of over 60% in size", "conditions": "A549 ARE-Fluc reporter, luciferase luminescence, 18-24 h; series mostly up to 46 µM", "in_short": "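Reporter: ARE-Fluc in A549. Exposure: 18-24 h, 37 °C, 5% CO2, 5% FBS OPTI-MEM. Readouts: fluorescent cytotoxicity (CellTiter-Fluor), then luminescent Nrf2 signal after BugLite.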", "values": [
      {"smiles": "CCOC(=O)CC(NC(=O)c1cc2cccc(OC)c2oc1=O)c1ccc(OC)cc1", "note": "(configuration not stated)", "Potency": "inconclusive: 20.6 µM [activator, single point]"},
      {"smiles": "Oc1ccccc1-c1csc(-c2ccccc2)n1", "Potency": "inconclusive: 20.6 µM [activator, single point]"},
      {"smiles": "COc1cc(O)cc(O)c1C(=O)/C=C/c1ccccc1", "Potency": "inactive"},
      {"smiles": "Cc1ccc2nc(Cl)c(C3CC(c4cccs4)=NN3C(=O)CCCC(=O)O)cc2c1", "note": "(configuration not stated)", "Potency": "inconclusive: 23.1 µM [falling, single point]"},
      {"smiles": "N#Cc1cnn2cc(-c3ncc(C(F)(F)F)cc3Cl)cnc12", "Potency": "inactive"},
      {"smiles": "C=CCOc1nc2c(c(=O)n(C)c(=O)n2C)n1Cc1ccccc1Cl", "Potency": "inconclusive: 1.84 µM [falling, partial curve, poor fit]"},
      {"smiles": "O=C(OCc1c(-c2ccccc2)ncc2ccccc12)c1cccs1", "Potency": "active: 16.4 µM"},
      {"smiles": "COc1ccccc1C(CNC(=O)CNC(=O)c1ccccc1Cl)N1CCCC1", "note": "(configuration not stated)", "Potency": "inconclusive: 29.1 µM [falling, single point]"},
      {"smiles": "NS(=O)(=O)c1ccc(CCNC(=O)c2ccccc2OCc2ccc(F)cc2)cc1", "Potency": "inconclusive: 23.1 µM [activator, single point]"},
      {"smiles": "CCOC(=O)c1cc(C#N)c(SCc2cccc3ccccc23)nc1C", "Potency": "inconclusive: 16.4 µM [falling, partial curve, poor fit]"},
      {"smiles": "CC1(C(=O)Nc2nc3ccc(S(C)(=O)=O)cc3s2)CC1(Cl)Cl", "note": "(configuration not stated)", "Potency": "inconclusive: 16.4 µM [activator, partial curve]"},
      {"smiles": "O=C(c1cc2c(s1)CCCC2)N1CCN(c2ccccc2)CC1", "Potency": "inconclusive: 20.6 µM [activator, partial curve]"},
      {"smiles": "CCN(c1ccccc1)S(=O)(=O)c1cccc(C(=O)NCc2ccncc2)c1", "Potency": "inconclusive: 32.6 µM [falling, single point]"},
      {"smiles": "C/C(=N\\Nc1nncc2ccccc12)c1cccc(OC(F)F)c1", "Potency": "inconclusive: 0.82 µM [activator, full curve]"},
      {"smiles": "COc1cc(/C(C#N)=C/c2cccc3ccccc23)c([N+](=O)[O-])cc1OC", "Potency": "inconclusive: 29.1 µM [falling, single point]"},
      {"smiles": "Cc1ccc(CNc2nc(N)c([N+](=O)[O-])c(NCCO)n2)cc1", "Potency": "inconclusive: 0.103 µM [falling, full curve, poor fit]"},
      {"smiles": "CCC(C(=O)Nc1cc(OC)cc(OC)c1)n1nc(-c2ccc(C)c(C)c2)ccc1=O", "note": "(configuration not stated)", "Potency": "inconclusive: 29.1 µM [falling, single point]"},
      {"smiles": "COc1cc(OC)c(C(=O)NCCCn2ccnc2)cc1OC", "Potency": "inconclusive: 32.6 µM [falling, single point]"},
      {"smiles": "O=C(NCc1ccccn1)Nc1ccc(Cl)cc1", "Potency": "inconclusive: 29.1 µM [activator, partial curve, poor fit]"},
      {"smiles": "CCOc1ccc(C(=O)NCCn2cc(SCC(=O)Nc3ccc4c(c3)OCCO4)c3ccccc32)cc1", "Potency": "inconclusive: 14.6 µM [falling, partial curve, poor fit]"},
      {"smiles": "COC(=O)c1ccc(-c2n[nH]c(=O)c3ccccc23)cc1", "Potency": "inconclusive: 9.2 µM [falling, partial curve, poor fit]"},
      {"smiles": "O=C(NCCc1c[nH]c2ccccc12)c1cccnc1", "Potency": "inconclusive: 7.31 µM [activator, partial curve, poor fit]"},
      {"smiles": "O=C(Nc1cccc(Cl)c1)c1ccc(F)c(S(=O)(=O)NCc2cccs2)c1", "Potency": "inconclusive: 20.6 µM [falling, single point]"},
      {"smiles": "Cc1ccc(-c2noc(CN3CCN(c4ccccc4F)CC3)n2)cc1", "Potency": "inconclusive: 25.9 µM [falling, partial curve, poor fit]"},
      {"smiles": "COc1ccc(C2CC(c3cccs3)=NN2C(=O)CSc2nc3ccccc3o2)cc1", "note": "(configuration not stated)", "Potency": "inactive"},
      {"smiles": "Cc1ccc2nc(NC(=O)CSCC(=O)OCC(=O)c3ccc(Br)cc3)sc2c1", "Potency": "active: 18.4 µM"},
      {"smiles": "O=C(CSc1nnc(-c2cccnc2)n1Cc1ccco1)c1ccc(Cl)cc1", "Potency": "inconclusive: 10.3 µM [activator, partial curve, poor fit]"},
      {"smiles": "Cn1cnc(S(=O)(=O)NCc2ccccc2)c1", "Potency": "inactive"},
      {"smiles": "COc1ccc(-n2c(=O)c3c(c4cc(OC)ccc4n3C)n(Cc3cccc(OC)c3)c2=O)cc1", "Potency": "inconclusive: 29.1 µM [activator, single point]"},
      {"smiles": "COc1ccc(-c2cc3nc(C)c(CCC(=O)Nc4ccccc4C(C)=O)c(C)n3n2)c(OC)c1", "Potency": "inconclusive: 13 µM [falling, partial curve]"},
      {"smiles": "CCc1cccc(C)c1NC(=O)Cn1ccn(-c2cccc(OC)c2)c(=O)c1=O", "Potency": "inactive"},
      {"smiles": "CCOC(=O)Cn1cc(C#N)c(=O)[nH]c1=O", "Potency": "inconclusive: 20.6 µM [activator, single point]"},
      {"smiles": "Cc1cccc(Cn2c(SCc3ccc(C(=O)NCCc4ccccc4)cc3)nc3ccncc32)c1", "Potency": "inconclusive: 20.6 µM [falling, partial curve]"},
      {"smiles": "CCOc1cc(C(N)=O)cc(OCC)c1OCC", "Potency": "inactive"},
      {"smiles": "O=C(CSCc1cccc(F)c1)NCc1ccccc1", "Potency": "inconclusive: 14.6 µM [activator, partial curve]"},
      {"smiles": "Cc1ccc(C(=O)CN2CCN(c3ccccn3)CC2)c(C)c1", "Potency": "inactive"},
      {"smiles": "Fc1cccc(-n2ncc3c2ncn2nc(COc4ccc(Cl)cc4)nc32)c1", "Potency": "inactive"},
      {"smiles": "Cc1ccc(-c2nc3ccccc3s2)cc1NC(=S)NC(=O)c1ccccc1", "Potency": "inconclusive: 1.84 µM [activator, partial curve]"},
      {"smiles": "Cn1c(=O)c2c(nc(SCC(=O)N3c4ccccc4CCc4ccccc43)n2C)n(C)c1=O", "Potency": "inconclusive: 1.46 µM [falling, full curve, poor fit]"},
      {"smiles": "COc1ccc(NC(=O)c2ccc(-c3nn(C)c(=O)c4ccccc34)cc2)cc1C(N)=O", "Potency": "inconclusive: 2.06 µM [falling, partial curve, poor fit]"},
      {"smiles": "O=C(CCCCCBr)N1CCC(CC2CC(c3cccc(Br)c3)=NO2)(C(=O)NCC2CCCCC2)CC1", "note": "(configuration not stated)", "Potency": "inconclusive: 29.1 µM [falling, single point]"},
      {"smiles": "CCOc1ccccc1/C=c1\\sc2ncnn2c1=O", "Potency": "inconclusive: 16.4 µM [falling, single point]"},
      {"smiles": "CC(=O)c1cccc(NC(=O)c2ccc(S(=O)(=O)N3CCCC3)cc2)c1", "Potency": "inconclusive: 32.6 µM [falling, single point]"},
      {"smiles": "Cc1nc2ccc(S(=O)(=O)N(C)CC(=O)NCCc3ccccc3)cc2s1", "Potency": "inconclusive: 13 µM [falling, partial curve, poor fit]"},
      {"smiles": "CCC(C)NC(=O)c1cc(-c2cccc(OC)c2)on1", "note": "(configuration not stated)", "Potency": "inconclusive: 7.31 µM [activator, partial curve]"},
      {"smiles": "CCC(=O)Nc1nc2ccccc2n1Cc1ccccc1C", "Potency": "inactive"},
      {"smiles": "COc1cccc(NC(=O)c2ccc(NC(=O)C3CC(=O)OC34CCCCC4)cc2)c1", "note": "(configuration not stated)", "Potency": "inconclusive: 16.4 µM [falling, partial curve, poor fit]"},
      {"smiles": "Clc1cccc(C[n+]2cc(-c3ccccc3)n3c2CCC3)c1", "Potency": "inactive"},
      {"smiles": "CCc1cccc(NC(=O)CCC(=O)N2CCSc3ccccc32)c1", "Potency": "inconclusive: 29.1 µM [falling, single point]"},
      {"smiles": "COc1ccc(CCNC(=O)C(C)n2nc(C)c3c(C)n(-c4ccc(C)cc4)nc3c2=O)c(OC)c1", "note": "(configuration not stated)", "Potency": "active: 5.8 µM"},
      {"smiles": "CCOc1ccc(Br)cc1S(=O)(=O)Nc1ccccc1N1CCOCC1", "Potency": "inconclusive: 14.6 µM [falling, partial curve]"},
      {"smiles": "COc1cc(NC(=O)Cn2c(=O)n(Cc3ccco3)c(=O)c3sc4ccccc4c32)cc(OC)c1", "Potency": "inactive"},
      {"smiles": "O=C(O)C1CC(=O)N(C2CCCCCC2)C1", "note": "(configuration not stated)", "Potency": "inconclusive: 23.1 µM [activator, partial curve, poor fit]"},
      {"smiles": "Cc1ccc(NC(=O)c2cncc(Br)c2)c([N+](=O)[O-])c1", "Potency": "inconclusive: 3.66 µM [falling, single point]"},
      {"smiles": "Cc1nc(NS(=O)(=O)c2ccc(Cl)s2)c2c3c(sc2n1)CCCC3", "Potency": "inconclusive: 14.6 µM [falling, partial curve, poor fit]"},
      {"smiles": "COc1ccc(NS(=O)(=O)c2cc(NC(=O)c3cc(=O)c4ccccc4o3)ccc2OC)cc1", "Potency": "inconclusive: 0.731 µM [falling, full curve, poor fit]"},
      {"smiles": "Cc1noc(C)c1CSCC(=O)Nc1cc(Cl)ccc1N1CCCCC1", "Potency": "inactive"},
      {"smiles": "CCc1ccc(N(CC(=O)Nc2sc3c(c2C(=O)OC)CCCC3)S(C)(=O)=O)cc1", "Potency": "inconclusive: 20.6 µM [falling, single point]"},
      {"smiles": "CCCCn1c(SCC(=O)Nc2cc(C(F)(F)F)cc(C(F)(F)F)c2)nnc1C(CC)N(C)C", "note": "(configuration not stated)", "Potency": "active: 13 µM"},
      {"smiles": "COc1ccc(CC(=O)NNC(=O)c2cc(Cl)ccc2OC)cc1", "Potency": "inactive"},
      {"smiles": "CCCCCCSc1ccc([C@H]2N[C@@](C)(C(=O)OC)[C@H]3C(=O)N(CC)C(=O)[C@@H]23)cc1", "Potency": "inconclusive: 20.6 µM [falling, single point]"},
      {"smiles": "CCCc1cc(=O)[nH]c(Nc2ccc3c(c2)OCCO3)n1", "Potency": "inconclusive: 20.6 µM [activator, single point]"},
      {"smiles": "Cc1nc2ccccc2nc1SCC(=O)N1CCC(C)CC1", "Potency": "inconclusive: 20.6 µM [falling, partial curve, poor fit]"},
      {"smiles": "Cc1nnc(NC(=O)C2CCCN(S(=O)(=O)c3ccccc3C(F)(F)F)C2)s1", "note": "(configuration not stated)", "Potency": "inactive"},
      {"smiles": "CSc1ccccc1NC(=O)c1ccc(N2CCCC2=O)cc1", "Potency": "inactive"},
      {"smiles": "CC(=O)c1sc(NC(=O)C2(F)C(F)(F)C(F)(F)C(F)(F)C(F)(F)C2(F)F)nc1C", "Potency": "active: 5.8 µM"},
      {"smiles": "COc1ccc2cc(CN(Cc3cccs3)Cc3nnnn3Cc3ccccc3)c(=O)[nH]c2c1", "Potency": "inconclusive: 29.1 µM [falling, single point]"}
    ]}
  ]
}
